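Plate-reader measure of the Venus reporter marking one vaccinia stage in infected cells (the cell line is not named here); read time unknown. The test concentration is not given here. Percent change in Venus reporter signal; lower (more negative) values mean stronger inhibition of that viral stage.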

Values are in %. How 0% and 100% were set is not given here. Common to all entries: measured here: Venus reporter, other viral stage. This is a side read-out of the assay, for part of the compounds, not drawn at random.

- COc1ccc(S(=O)(=O)Nc2ccc3c(c2)CC(=O)N([C@H](C)CO)C[C@H](C)[C@H](CN(C)Cc2ccc(-c4ccccc4)cc2)O3)cc1 | activity change (Venus) -39.79%
- O=C(c1ccncc1)N1CC(=O)N2[C@H](C1)[C@H](c1ccc(/C=C/c3ccccc3)cc1)[C@@H]2CO | activity change (Venus) -64.29%
- COc1ccc(CN(C)C[C@H]2OCCCC[C@@H](C)Oc3ccc(NC(=O)Nc4cccc5ccccc45)cc3C(=O)N([C@@H](C)CO)C[C@H]2C)cc1 | activity change (Venus) -24.5%
- COc1ccccc1CN1C[C@@H]2N[C@H](C1)C2c1ccc(-c2ccc(C#N)cc2)cc1 (stereo partly drawn) | activity change (Venus) -68.14%
- C[C@@H]1CN([C@H](C)CO)C(=O)c2cc(-c3cncnc3)cnc2O[C@@H]1CN(C)Cc1ccc(Oc2ccccc2)cc1 | activity change (Venus) -31.57%
- Cc1noc(C)c1NC(=O)Nc1ccc2c(c1)C(=O)N([C@H](C)CO)C[C@H](C)[C@@H](CN(C)Cc1ccc(C(F)(F)F)cc1)OCCCC[C@H](C)O2 | activity change (Venus) -25.5%
- Cc1cccc(-c2ccc([C@H]3[C@H](CO)N4CCCCN(CCC(F)(F)F)C[C@@H]34)cc2)c1 | activity change (Venus) -46.27%
- O=C(C[C@H]1C=C[C@H](NC(=O)CCN2CCCCC2)[C@@H](CO)O1)Nc1ccc(-c2ccccc2)cc1 | activity change (Venus) -27.25%
- COc1cc(CN2C[C@@H]3N[C@H](C2)C3c2ccc(-c3ccccc3C)cc2)cc(OC)c1 (stereo partly drawn) | activity change (Venus) -52.61%
- CO[C@@H]1CN(C)C(=O)c2ccc(NC(=O)c3ccc(-c4ccccc4)cc3)cc2OC[C@H](C)NC[C@H]1C | activity change (Venus) -30.09%
- Cc1ccc(S(=O)(=O)N(C)C[C@H]2Oc3ccc(NC(=O)Nc4ccccc4)cc3C(=O)N([C@@H](C)CO)C[C@H]2C)cc1 | activity change (Venus) -17.31%
- C[C@H](CO)N1C[C@H](C)[C@H](CN(C)C(=O)NC2CCCCC2)Oc2c(NC(=O)Nc3ccccc3)cccc2C1=O | activity change (Venus) -81.23%
- O=C(C[C@@H]1C[C@H]2c3cc(NS(=O)(=O)c4ccc(F)cc4)ccc3O[C@H]2[C@@H](CO)O1)NCc1ccc(-c2ccccc2)cc1 | activity change (Venus) -33.74%
- COc1ccc(S(=O)(=O)N(C)C[C@H]2Oc3cc(C#CC4CC4)ccc3S(=O)(=O)N([C@@H](C)CO)C[C@H]2C)cc1 | activity change (Venus) -63.82%
- C/C=C/c1ccc(C2[C@@H]3CN(C(=O)Nc4ccccc4OC)C[C@H]2N3)cc1 (stereo partly drawn) | activity change (Venus) -31.8%
- COc1ccc(CN2[C@@H](CO)[C@@H]3c4ccccc4N(C(=O)CC(F)(F)F)C[C@@H]32)cc1 | activity change (Venus) -37.35%
- C[C@@H]1CCCCO[C@@H](CN(C)Cc2ccc(C(F)(F)F)cc2)[C@H](C)CN([C@@H](C)CO)C(=O)c2cc(NC(=O)c3ccccc3)ccc2O1 | activity change (Venus) -31.71%
- COc1ccc(-c2ccc3c(c2)O[C@@H](CN(C)C(=O)Nc2ccccc2F)[C@@H](C)CN([C@H](C)CO)S3(=O)=O)cc1 | activity change (Venus) -34.01%
- C[C@@H]1CN([C@H](C)CO)C(=O)c2cc(NC(=O)c3ccccc3)ccc2O[C@@H](C)CCCCO[C@H]1CN(C)Cc1ccc(C(F)(F)F)cc1 | activity change (Venus) -29.15%
- C[C@@H]1CN([C@H](C)CO)S(=O)(=O)c2ccc(-c3ccc(F)cc3)cc2O[C@H]1CN(C)C(=O)C1CCCCC1 | activity change (Venus) -25.61%
- COc1ccc2c3c(n(C)c2c1)[C@@H](CO)N(Cc1ccccc1Cl)CC31CCN(C(=O)CN(C)C)CC1 | activity change (Venus) -37.7%
- CC(=O)N1CC2(C1)[C@H](c1ccc(-c3ccc(C#N)cc3)cc1)[C@H](CO)N2CCC(F)(F)F | activity change (Venus) -26.17%
- C[C@@H]1CN([C@H](C)CO)C(=O)c2c(c3ccccc3n2C)-c2ccccc2CO[C@@H]1CN(C)C(=O)[C@H](C)c1ccccc1 | activity change (Venus) -43.7%
- O=C(C1CCCCC1)N1CC(=O)N2[C@H](CO)[C@H](c3ccc(C#Cc4cccc(F)c4)cc3)[C@@H]2C1 | activity change (Venus) -54.24%

Source: PubChem BioAssay AID1053133 (Broad Institute, 2014).